# According to PubChem BioAssay AID720504 (National Center for Advancing Translational Sciences (NCATS), 2013):
# Amino acid sequences for entries named in this document (tags omitted).
# UniProt P53350, whole entry, looked up: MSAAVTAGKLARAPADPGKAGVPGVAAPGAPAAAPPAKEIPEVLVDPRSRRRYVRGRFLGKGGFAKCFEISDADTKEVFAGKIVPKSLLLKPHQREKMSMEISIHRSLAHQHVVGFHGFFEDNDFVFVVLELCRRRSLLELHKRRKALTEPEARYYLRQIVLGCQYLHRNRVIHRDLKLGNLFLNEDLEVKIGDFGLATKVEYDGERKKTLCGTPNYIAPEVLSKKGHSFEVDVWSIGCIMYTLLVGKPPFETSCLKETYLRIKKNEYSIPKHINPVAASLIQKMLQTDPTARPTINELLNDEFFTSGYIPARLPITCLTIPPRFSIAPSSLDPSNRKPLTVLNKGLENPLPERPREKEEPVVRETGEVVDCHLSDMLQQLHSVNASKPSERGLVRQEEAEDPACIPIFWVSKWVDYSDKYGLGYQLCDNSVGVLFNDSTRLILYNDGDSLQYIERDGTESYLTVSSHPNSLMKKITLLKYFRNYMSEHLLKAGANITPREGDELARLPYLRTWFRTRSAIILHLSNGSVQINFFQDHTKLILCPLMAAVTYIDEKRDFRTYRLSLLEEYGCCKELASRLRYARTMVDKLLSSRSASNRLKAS
# Out of some 360,000 compounds screened, about 10,000 (2.8%) were called active. This list was built around the results that the source calls inconclusive (neither active nor inactive); the mix of calls is not that of the screen. The call rests on the fitted dose curve; in most records, active means well fitted inhibition curve with a large enough effect; inconclusive means small, poorly fitted or top-dose-only effect; inactive means flat fitted curve, though single readings scatter. Where the call is inconclusive, the potency comes from a doubtful curve fit.
# Biological target: Serine/threonine-protein kinase PLK1 (Homo sapiens) (UniProt P53350)
# Assay: qHTS for Inhibitors of PLK1-PDB (polo-like kinase 1 - polo-box domain): Primary Screen; further: nearly all actives have a fitted effect of over 65% in size; on max response, negative = inhibition: series mostly up to about 57 µM
# Settings: Plk1 PBD binding of FITC phosphopeptide, fluorescence polarization
# On the % scale 0 is the no-effect control and ±100 the full control effect; potency means the concentration at half of the fitted maximal effect.
Compound,"max response, negative = inhibition",Potency
COc1ccc(NC(=S)N2CCC(N(C)CC3CCCO3)CC2)cc1Cl (stereo unspecified),inconclusive: -31.1% [inhibitor],
COc1cc2c(cc1OC)-c1n[nH]c(=S)n1C(C)(C)C2,,"inconclusive: 16.8 µM [inhibitor, partial curve]"
O=C(CSCCc1ccccn1)Nc1ccccn1,,"inconclusive: 2.38 µM [inhibitor, partial curve, poor fit]"
O=C(NCCCN1CCN(CCCNC(=O)c2ccccc2F)CC1)c1ccccc1F,inactive: 0.306%,
CC(C)CCN1NC2(CCC(C)CC2)NC1=S (stereo unspecified),,"inconclusive: 29.9 µM [inhibitor, single point]"
O=C(CNC(=O)c1cccs1)N/N=C/c1c[nH]c2ccccc12,,active: 18.9 µM
COc1ccc(C2c3[nH]c4ccccc4c3C[C@H]3C(=O)N(C4CCN(Cc5ccccc5)CC4)CC(=O)N23)c(OC)c1 (stereo partly specified),,"inconclusive: 26.7 µM [inhibitor, single point]"
COc1cccc(/C=N/NC(=S)Nc2cccc(S(=O)(=O)N(C)C)c2)c1,,active: 8.44 µM
O=C(Cn1c(=O)n(-c2cccc(C(F)(F)F)c2)c(=O)c2sccc21)NCC1CCCO1 (stereo unspecified),,"inconclusive: 23.8 µM [inhibitor, single point]"
COc1cc(/C=C(\C#N)C(=O)c2c(C)[nH]c3ccccc23)cc(OC)c1OC,,"inconclusive: 8.44 µM [inhibitor, full curve]"
Cc1cc(C=O)c(C)n1-c1ccc(N2CCCC2)c([N+](=O)[O-])c1,,"inconclusive: 29.9 µM [inhibitor, single point]"
COc1ccc(OC)c(CCNC(=O)CCc2nnc3ccc(N4CCOCC4)nn23)c1,,active: 29.9 µM
COc1ccc(-n2c(SC3CCOC3=O)nc3ccccc3c2=O)cc1Cl (stereo unspecified),,"inconclusive: 26.7 µM [inhibitor, single point]"
COc1ccc(C(=O)Nc2cccnc2)cc1C(=O)Nc1cccnc1,,"inconclusive: 29.9 µM [inhibitor, partial curve]"
COc1ccc(/C=N/Nc2ccc(C(F)(F)F)cc2[N+](=O)[O-])cc1O,,"inconclusive: 29.9 µM [inhibitor, partial curve]"
Clc1cc2c(nn1)Nc1ccccc1S2,inactive: -15.4%,
Nc1ccc(N2CCCCC2)c(Cl)c1,inactive: -15.2%,
O=C(CSc1n[nH]c(Cc2ccccc2)n1)Nc1ccccc1Br,,"inconclusive: 21.2 µM [inhibitor, partial curve]"
CCC(Oc1ccccc1)C(=O)Nc1nc2ccccc2[nH]1 (stereo unspecified),,"inconclusive: 29.9 µM [inhibitor, partial curve]"
Cc1cc(C)c2nc(-c3ccccn3)cc(C(=O)Nc3ccc(S(=O)(=O)Nc4onc(C)c4C)cc3)c2c1,,active: 6.7 µM
CC(C)(C)Cc1nnc(NC(=O)Cc2ccc([N+](=O)[O-])cc2)s1,,active: 5.32 µM
Cc1c(NC(=O)Nc2ccc(Cl)c(Cl)c2)sc(=S)n1C,,"inconclusive: 23.8 µM [inhibitor, partial curve]"
O=C(c1cccs1)c1no[n+]([O-])c1C(=O)c1cccs1,,"inconclusive: 8.44 µM [inhibitor, partial curve]"
CCCCc1cc(=O)oc2cc(OCc3cc(OC)c(OC)c(OC)c3)c(Cl)cc12,inactive: -4.93%,

# No new results follow: two of the compounds above.
Compound,"max response, negative = inhibition",Potency
COc1ccc(/C=N/Nc2ccc(C(F)(F)F)cc2[N+](=O)[O-])cc1O,,"inconclusive: 29.9 µM [inhibitor, partial curve]"
Clc1cc2c(nn1)Nc1ccccc1S2,inactive: -15.4%,

# Remaining list, next part:

Compound,"max response, negative = inhibition",Potency
O=C(CSc1nc2ccccc2s1)N1CCN(C(=O)c2ccco2)CC1,,"inconclusive: 26.7 µM [inhibitor, partial curve]"
CC(C)c1ccc(CNCCCSc2ncccn2)cc1,,"inconclusive: 23.8 µM [inhibitor, single point]"
COCCOC(=O)/C(=C/c1ccc(OC(=O)c2ccccc2)cc1)C(C)=O,,active: 21.2 µM
CC(=O)Nc1ccc(S(=O)(=O)NNC(=O)COc2ccc(Cl)cc2Cl)cc1,inactive: -14.5%,
CN(CC(=O)Nc1ncn[nH]1)S(=O)(=O)c1cc(Cl)ccc1Cl,inactive: -2.63%,
COc1ccc(/C=N/NC(=S)Nc2c(C)n(C)n(-c3ccccc3)c2=O)cc1OC,inactive: -0.54%,
Fc1ccc(/C=N/n2c(C3CCCCC3)n[nH]c2=S)cc1,,"inconclusive: 26.7 µM [inhibitor, partial curve]"
NS(=O)(=O)c1ccc(N=C2C(=O)Nc3ccccc32)cc1,inactive: 2.01%,
COc1ccc(CCNC(=O)c2[nH]c(C)c(C(C)=O)c2C)cc1OC,inactive: -5.24%,
CCNC(=S)Nc1ccccc1-c1ccccc1,,"inconclusive: 29.9 µM [inhibitor, single point]"
O=C(CSc1n[nH]c(=O)[nH]c1=O)Nc1ccc2c(c1)C(=O)c1ccccc1C2=O,,active: 6.7 µM
CCOc1ccc(-n2c(SCC(=O)Nc3cc(C)on3)nc3c(c2=O)SCC3)cc1,inactive: -9.34%,
FC(F)(F)c1nnc2ccc(NCn3nnc4ccccc43)nn12,,"inconclusive: 33.6 µM [inhibitor, partial curve]"
COCOCCn1cc(CN2CCS(=O)(=O)N(Cc3ccc(-c4ccc(OC)c(OC)c4)cc3)C(CC(C)C)C2=O)nn1 (stereo unspecified),inactive: -2.71%,
CC(=O)N1CCOc2ccc(S(=O)(=O)NCc3ccc(C)cc3)cc21,,"inconclusive: 29.9 µM [inhibitor, single point]"
CCOc1ccc(CCN2C(=O)C(=O)N([C@@H](Cc3ccc(O)cc3)CN3CCC[C@@H]3CN3C(=O)C(=O)NC[C@@H]3Cc3ccccc3)C[C@@H]2Cc2ccccc2)cc1,inactive: -3.62%,
c1cc2[nH]snc2c2nc(C3CC3)nc12,,"inconclusive: 23.8 µM [inhibitor, single point]"
C=CCOn1c(=O)c(-c2ccc(Cl)cc2)[n+]([O-])c2ccccc21,,"inconclusive: 2.12 µM [inhibitor, partial curve]"
O=S(=O)(C/C(=C/CO)S(=O)(=O)c1ccccc1)c1ccccc1,,"inconclusive: 26.7 µM [inhibitor, partial curve]"
Cn1cnc(Sc2ncnc3nc[nH]c23)c1[N+](=O)[O-],,"inconclusive: 23.8 µM [inhibitor, partial curve]"
C=CCC1(N(C(C)=O)c2ccccc2)CCCCC1,inconclusive: -32.1% [inhibitor],
COc1ccc(C[C@H]2CN3C(=NC[C@@H]3C(C)C)N2C[C@H](C)NC(=O)c2ccc(C)c(Br)c2)cc1,,"inconclusive: 23.8 µM [inhibitor, single point]"
COc1ccccc1C(=O)NC1CCN(C(=S)NCCc2ccccc2)CC1,,"inconclusive: 23.8 µM [inhibitor, partial curve]"
O=C(COC(=O)c1ccc([N+](=O)[O-])s1)c1ccc[nH]1,inactive: -5.03%,

# 3 entries picked at random from those above:
Compound,"max response, negative = inhibition",Potency
CN(CC(=O)Nc1ncn[nH]1)S(=O)(=O)c1cc(Cl)ccc1Cl,inactive: -2.63%,
Fc1ccc(/C=N/n2c(C3CCCCC3)n[nH]c2=S)cc1,,"inconclusive: 26.7 µM [inhibitor, partial curve]"
O=S(=O)(C/C(=C/CO)S(=O)(=O)c1ccccc1)c1ccccc1,,"inconclusive: 26.7 µM [inhibitor, partial curve]"

# The listing continues.

Compound,"max response, negative = inhibition",Potency
Cc1cc(F)ccc1NCc1ccncc1,inactive: 0.0761%,
Cc1oc(C)c2c(=O)ccc3c(c12)OC(N)=C(C#N)C3c1ccccc1Cl (stereo unspecified),,"inconclusive: 26.7 µM [inhibitor, single point]"
COCCN(CCOc1cc(C)cc(C)c1)Cc1ccc(Cl)cc1,inactive: -0.403%,
CCOC(=O)c1ccc(NC(=S)NCCC2=CCCCC2)cc1,inactive: -9.42%,
Cc1ccc(C(=O)COC(=O)CSc2cccc3cccnc23)c(C)c1,,"inconclusive: 21.2 µM [inhibitor, partial curve]"
CC1CCN(CC(=O)Nc2ccc(S(=O)(=O)NC3CC3)cc2)CC1,inactive: 6.4%,
O=c1c2ccccc2sn1-c1ccccc1F,,active: 2.99 µM
Cn1c(=O)n(C)c2cc(NC(=O)CSc3ccccc3)ccc21,inconclusive: -35.9% [inhibitor],
Nn1c(Nc2ccccc2)nc2sc3c(c2c1=O)CCCC3,inconclusive: -34.2% [inhibitor],
O=C(NN1CCN(Cc2ccccc2)CC1)c1ccc(Cl)cc1,inactive: 1.92%,
CN(C)CCN(C(=O)CCS(=O)(=O)c1ccccc1)c1nc2c(F)cccc2s1,inconclusive: -28.3% [inhibitor],
CC[C@@H]1Cc2[nH][nH]c(=O)c2[C@@H](c2ccc(F)cc2)O1,inactive: -1.62%,
CSCC[C@H](NC(=O)c1ccc2ccccc2c1)C(=O)N1CCC2(CC1)NCCc1[nH]cnc12,inactive: -15.2%,
COc1cccc(/C=N/NC(=O)C(=O)N2CCCC2)c1O,inactive: -4.67%,
C[C@@H]1CC=C[C@H]2[C@H]1C(=O)N(Cc1ccccc1)[C@H]2c1ccc2ccccc2c1,,"inconclusive: 23.8 µM [inhibitor, partial curve]"
Cc1ccccc1-c1cc2nc(Oc3cccc4ccccc34)n(C)c(=O)c2s1,inactive: -3.09%,
CCOc1cc(/C=C2\C(=N)N3N=C(S(=O)(=O)CC)SC3=NC2=O)ccc1OC(=O)c1ccco1,,"inconclusive: 21.2 µM [inhibitor, single point]"
CN(Cc1ccccc1)C(=O)CCS(=O)(=O)c1ccc2c(c1)n(C)c(=O)c(=O)n2C,,"inconclusive: 23.8 µM [inhibitor, single point]"
O=c1c2ccccc2nc(N/N=C/c2ccc(O)cc2)n1O,,"inconclusive: 29.9 µM [inhibitor, single point]"
Cc1cc(C(=O)N/N=C/c2ccc3c(c2)OCO3)c(C)n1-c1ccc(F)cc1,inactive: -5.77%,
CCOCCCN(C(=O)c1snc(C(N)=O)c1N)C(C(=O)NC1CCCC1)c1ccc(OC)cc1 (stereo unspecified),inactive: -1.95%,
O=C(O)C1CC(=O)N(c2ccc3c(c2)OCCO3)C1 (stereo unspecified),,active: 2.99 µM
CCC(Cc1ccccc1)NC(=O)C1CCN(S(=O)(=O)c2ccc3c(c2)CC(C)N3C(C)=O)CC1 (stereo unspecified),inactive: -6.36%,
